# Test results from the supplement of paper PMC12823440, “Inhibitors supercharge kinase turnover through native proteolytic circuits” (Nature, 2025).
# Sequences of proteins named here, by UniProt entry; tags and fusion partners are left off. A change or cut given only in a name is not applied to a line headed by its entry.
# UniProt P00519, whole entry: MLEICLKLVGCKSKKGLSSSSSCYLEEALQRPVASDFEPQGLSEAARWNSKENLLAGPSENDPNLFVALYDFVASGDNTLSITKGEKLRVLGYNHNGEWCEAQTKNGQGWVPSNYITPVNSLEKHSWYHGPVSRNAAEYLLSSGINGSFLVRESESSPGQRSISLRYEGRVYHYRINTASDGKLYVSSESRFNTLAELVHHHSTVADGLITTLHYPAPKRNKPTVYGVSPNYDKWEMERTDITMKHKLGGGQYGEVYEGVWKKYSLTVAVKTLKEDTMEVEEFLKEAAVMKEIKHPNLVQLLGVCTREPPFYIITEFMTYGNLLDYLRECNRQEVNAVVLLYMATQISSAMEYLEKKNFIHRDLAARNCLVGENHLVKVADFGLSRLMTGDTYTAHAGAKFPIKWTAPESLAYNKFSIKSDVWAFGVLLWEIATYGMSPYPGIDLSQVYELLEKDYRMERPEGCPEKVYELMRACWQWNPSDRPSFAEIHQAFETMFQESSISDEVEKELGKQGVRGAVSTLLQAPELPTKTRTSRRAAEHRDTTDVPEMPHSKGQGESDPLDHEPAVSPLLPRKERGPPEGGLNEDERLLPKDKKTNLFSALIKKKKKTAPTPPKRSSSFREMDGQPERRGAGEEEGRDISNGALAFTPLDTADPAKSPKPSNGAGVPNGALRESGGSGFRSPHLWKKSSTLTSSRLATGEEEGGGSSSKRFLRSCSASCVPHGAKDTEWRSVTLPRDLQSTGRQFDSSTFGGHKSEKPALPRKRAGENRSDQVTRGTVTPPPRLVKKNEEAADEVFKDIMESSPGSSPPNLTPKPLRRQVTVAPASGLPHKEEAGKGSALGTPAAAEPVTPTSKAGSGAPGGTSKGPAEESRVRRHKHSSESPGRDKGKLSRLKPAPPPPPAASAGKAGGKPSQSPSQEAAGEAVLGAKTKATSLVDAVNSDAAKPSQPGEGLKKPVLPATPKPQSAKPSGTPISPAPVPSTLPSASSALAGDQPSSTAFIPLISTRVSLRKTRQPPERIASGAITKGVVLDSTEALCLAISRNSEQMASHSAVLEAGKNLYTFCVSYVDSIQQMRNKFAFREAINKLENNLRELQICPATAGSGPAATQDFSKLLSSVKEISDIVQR
# UniProt P31749: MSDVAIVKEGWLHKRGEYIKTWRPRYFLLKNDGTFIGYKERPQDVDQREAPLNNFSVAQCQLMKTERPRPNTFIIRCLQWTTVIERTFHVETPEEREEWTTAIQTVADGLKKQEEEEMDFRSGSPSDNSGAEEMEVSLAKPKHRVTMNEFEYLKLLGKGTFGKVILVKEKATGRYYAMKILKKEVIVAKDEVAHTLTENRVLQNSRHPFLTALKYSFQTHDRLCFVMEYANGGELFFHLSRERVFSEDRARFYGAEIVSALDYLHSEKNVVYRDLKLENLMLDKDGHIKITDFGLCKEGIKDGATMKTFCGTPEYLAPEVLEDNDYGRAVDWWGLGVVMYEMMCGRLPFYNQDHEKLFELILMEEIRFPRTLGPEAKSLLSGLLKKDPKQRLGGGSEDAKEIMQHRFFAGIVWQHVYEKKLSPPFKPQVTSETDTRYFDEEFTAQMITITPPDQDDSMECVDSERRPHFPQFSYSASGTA
# UniProt P10398: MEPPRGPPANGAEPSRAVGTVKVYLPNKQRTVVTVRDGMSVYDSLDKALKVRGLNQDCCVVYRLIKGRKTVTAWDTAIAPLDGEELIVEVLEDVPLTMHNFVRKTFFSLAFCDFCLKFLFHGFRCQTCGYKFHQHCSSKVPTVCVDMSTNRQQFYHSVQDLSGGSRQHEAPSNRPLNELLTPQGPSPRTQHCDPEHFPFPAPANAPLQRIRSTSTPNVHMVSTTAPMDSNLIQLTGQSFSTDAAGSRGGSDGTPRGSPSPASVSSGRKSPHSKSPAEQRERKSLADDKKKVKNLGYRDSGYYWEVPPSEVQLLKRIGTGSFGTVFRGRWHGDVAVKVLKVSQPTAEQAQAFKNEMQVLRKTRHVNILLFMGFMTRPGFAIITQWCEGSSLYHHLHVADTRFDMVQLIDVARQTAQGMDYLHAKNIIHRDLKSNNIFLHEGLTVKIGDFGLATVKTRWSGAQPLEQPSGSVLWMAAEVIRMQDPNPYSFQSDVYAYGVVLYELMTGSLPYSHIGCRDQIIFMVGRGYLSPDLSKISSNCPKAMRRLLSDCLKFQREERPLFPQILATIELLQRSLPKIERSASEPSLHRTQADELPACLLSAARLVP
# UniProt Q9UQB9: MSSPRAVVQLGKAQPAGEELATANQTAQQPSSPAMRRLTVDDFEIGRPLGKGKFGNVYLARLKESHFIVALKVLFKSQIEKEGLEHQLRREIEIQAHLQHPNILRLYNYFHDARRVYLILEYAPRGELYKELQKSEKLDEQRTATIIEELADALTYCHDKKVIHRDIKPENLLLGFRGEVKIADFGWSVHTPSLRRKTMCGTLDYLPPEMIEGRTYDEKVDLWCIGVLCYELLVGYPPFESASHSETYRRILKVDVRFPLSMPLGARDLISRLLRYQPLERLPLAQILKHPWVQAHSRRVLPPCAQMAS
# UniProt P51451: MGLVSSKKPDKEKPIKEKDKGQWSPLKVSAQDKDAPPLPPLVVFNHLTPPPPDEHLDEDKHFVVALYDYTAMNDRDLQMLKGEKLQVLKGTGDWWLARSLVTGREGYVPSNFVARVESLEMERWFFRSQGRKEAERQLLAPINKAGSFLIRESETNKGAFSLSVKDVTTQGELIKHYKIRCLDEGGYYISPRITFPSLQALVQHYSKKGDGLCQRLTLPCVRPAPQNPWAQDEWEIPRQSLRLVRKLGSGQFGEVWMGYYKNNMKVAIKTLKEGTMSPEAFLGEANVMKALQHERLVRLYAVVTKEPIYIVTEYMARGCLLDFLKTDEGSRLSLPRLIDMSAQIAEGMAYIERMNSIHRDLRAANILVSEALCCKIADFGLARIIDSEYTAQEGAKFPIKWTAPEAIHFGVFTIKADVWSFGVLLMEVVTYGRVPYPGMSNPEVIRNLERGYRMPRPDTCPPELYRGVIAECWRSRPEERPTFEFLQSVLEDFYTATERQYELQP
# UniProt P51813: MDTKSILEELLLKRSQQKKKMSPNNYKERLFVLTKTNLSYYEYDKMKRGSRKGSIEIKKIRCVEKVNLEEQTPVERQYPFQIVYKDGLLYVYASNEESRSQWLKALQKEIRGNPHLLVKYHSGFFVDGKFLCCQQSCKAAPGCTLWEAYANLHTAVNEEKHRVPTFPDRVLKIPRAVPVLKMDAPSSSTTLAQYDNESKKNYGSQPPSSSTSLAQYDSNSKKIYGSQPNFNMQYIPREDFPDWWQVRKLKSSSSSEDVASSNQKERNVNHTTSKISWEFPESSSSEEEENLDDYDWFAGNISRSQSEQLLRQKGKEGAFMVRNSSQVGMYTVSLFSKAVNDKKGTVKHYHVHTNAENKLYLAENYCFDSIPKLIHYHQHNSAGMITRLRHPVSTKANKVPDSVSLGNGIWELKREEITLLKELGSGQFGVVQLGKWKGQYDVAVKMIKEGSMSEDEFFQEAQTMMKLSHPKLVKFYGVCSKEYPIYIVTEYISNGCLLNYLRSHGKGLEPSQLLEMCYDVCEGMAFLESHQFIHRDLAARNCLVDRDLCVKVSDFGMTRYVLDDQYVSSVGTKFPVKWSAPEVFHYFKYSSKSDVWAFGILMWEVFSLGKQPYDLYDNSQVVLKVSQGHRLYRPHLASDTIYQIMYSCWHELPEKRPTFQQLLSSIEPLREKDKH
# UniProt P15056, whole entry, looked up: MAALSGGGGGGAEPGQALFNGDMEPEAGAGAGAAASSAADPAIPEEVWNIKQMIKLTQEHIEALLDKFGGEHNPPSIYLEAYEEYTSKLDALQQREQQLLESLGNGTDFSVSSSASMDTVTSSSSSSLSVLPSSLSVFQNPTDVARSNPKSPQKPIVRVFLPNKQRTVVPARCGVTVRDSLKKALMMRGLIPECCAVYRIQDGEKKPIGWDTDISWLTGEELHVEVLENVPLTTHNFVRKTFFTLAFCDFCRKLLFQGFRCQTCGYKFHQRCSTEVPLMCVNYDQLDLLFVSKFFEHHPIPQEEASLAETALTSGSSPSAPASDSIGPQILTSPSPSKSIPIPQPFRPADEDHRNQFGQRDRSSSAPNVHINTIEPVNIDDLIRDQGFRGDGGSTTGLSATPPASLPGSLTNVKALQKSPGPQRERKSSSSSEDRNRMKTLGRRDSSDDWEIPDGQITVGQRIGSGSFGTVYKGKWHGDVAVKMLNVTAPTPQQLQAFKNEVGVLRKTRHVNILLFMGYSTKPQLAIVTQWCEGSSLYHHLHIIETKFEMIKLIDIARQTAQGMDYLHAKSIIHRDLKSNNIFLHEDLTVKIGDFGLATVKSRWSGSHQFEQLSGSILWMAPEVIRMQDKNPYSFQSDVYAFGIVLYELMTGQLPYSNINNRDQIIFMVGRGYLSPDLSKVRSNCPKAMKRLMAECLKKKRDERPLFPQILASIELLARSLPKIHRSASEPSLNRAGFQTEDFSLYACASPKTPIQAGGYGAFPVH
# UniProt Q06187: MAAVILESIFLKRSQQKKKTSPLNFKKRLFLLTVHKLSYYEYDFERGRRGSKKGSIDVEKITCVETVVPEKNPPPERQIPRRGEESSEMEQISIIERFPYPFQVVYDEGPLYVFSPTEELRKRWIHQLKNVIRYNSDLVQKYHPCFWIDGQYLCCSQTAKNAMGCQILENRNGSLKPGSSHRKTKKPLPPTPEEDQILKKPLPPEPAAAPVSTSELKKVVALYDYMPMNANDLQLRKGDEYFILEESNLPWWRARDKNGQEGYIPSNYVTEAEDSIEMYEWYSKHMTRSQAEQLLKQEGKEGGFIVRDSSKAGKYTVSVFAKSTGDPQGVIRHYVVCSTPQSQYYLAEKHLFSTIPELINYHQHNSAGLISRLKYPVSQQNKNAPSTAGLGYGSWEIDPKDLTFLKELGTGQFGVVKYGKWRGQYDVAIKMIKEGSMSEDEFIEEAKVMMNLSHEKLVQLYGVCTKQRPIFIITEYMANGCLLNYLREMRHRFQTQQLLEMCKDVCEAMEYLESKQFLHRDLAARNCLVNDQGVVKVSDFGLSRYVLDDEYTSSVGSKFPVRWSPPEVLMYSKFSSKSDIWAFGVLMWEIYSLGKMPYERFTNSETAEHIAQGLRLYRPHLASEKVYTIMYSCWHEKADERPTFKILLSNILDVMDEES
# UniProt Q13555: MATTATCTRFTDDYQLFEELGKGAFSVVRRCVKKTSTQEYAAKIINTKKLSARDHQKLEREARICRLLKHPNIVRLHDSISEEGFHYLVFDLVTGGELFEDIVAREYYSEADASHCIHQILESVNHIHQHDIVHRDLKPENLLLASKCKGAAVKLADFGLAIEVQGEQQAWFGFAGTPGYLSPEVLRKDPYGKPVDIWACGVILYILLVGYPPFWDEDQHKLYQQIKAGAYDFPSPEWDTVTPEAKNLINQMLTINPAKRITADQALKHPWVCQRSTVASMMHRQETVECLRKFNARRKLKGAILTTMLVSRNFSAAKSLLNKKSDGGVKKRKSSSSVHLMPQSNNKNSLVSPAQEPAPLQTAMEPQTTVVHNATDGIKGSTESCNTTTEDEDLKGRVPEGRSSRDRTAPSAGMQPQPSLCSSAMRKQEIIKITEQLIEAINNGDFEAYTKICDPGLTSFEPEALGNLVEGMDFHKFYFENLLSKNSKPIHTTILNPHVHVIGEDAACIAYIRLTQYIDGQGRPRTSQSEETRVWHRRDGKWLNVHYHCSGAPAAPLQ
# UniProt Q00526: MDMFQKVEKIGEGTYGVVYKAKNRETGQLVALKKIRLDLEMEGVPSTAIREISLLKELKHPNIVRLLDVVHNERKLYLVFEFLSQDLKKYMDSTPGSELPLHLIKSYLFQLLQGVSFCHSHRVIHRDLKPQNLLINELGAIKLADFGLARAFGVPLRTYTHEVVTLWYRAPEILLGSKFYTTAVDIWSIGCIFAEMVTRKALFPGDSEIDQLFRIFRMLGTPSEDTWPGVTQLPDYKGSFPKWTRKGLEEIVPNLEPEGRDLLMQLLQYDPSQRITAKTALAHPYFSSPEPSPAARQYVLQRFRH
# UniProt P11802: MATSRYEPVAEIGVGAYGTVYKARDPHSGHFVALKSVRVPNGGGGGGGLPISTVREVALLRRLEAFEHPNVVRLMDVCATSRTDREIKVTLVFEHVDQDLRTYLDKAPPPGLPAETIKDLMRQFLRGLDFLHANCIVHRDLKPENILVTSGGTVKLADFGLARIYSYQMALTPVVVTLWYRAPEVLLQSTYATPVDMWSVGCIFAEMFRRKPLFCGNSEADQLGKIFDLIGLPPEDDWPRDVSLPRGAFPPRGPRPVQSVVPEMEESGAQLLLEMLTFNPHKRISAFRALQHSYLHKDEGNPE
# UniProt Q00535, whole entry, looked up: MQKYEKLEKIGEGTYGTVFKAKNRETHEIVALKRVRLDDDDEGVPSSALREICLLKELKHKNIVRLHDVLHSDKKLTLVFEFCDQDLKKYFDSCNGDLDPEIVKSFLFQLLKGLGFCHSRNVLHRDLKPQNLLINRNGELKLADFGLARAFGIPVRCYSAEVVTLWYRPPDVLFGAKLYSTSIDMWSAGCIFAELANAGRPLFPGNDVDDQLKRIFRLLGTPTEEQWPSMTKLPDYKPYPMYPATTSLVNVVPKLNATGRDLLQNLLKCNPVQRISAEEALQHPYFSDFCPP
# Some of the results follow. Hit calls seldom repeat between salt and free forms of one compound.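 Kinases were expressed as nanoluciferase fusions in K562 cells and luminescence was read every 4 h between 2 and 18 h as percent of control, DMSO set to 100% and a positive control to 0%. A time point counts as decreased when the signal drops significantly (2 sigma). The hit call is the authors' own, does not follow from the count of time points alone, and its rule is not shown.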
# What was measured:
# Experiment in all cases: kinase-Nluc reporter destabilization hit call (1 = scored as downregulated) (binary); higher = compound decreases kinase abundance
# Settings in all cases: K562; 2-18 h
# ABL1 = ABL1 (UniProt P00519)
# AKT1 = AKT1 (UniProt P31749)
# ALK = ALK (UniProt Q9UM73)
# ARAF = ARAF (UniProt P10398)
# AURKA = AURKA (UniProt O14965)
# AURKB = AURKB (UniProt Q96GD4)
# AURKC = AURKC (UniProt Q9UQB9)
# BLK = BLK (UniProt P51451)
# BMX = BMX (UniProt P51813)
# BRAF = BRAF (UniProt P15056)
# BRAF_V600E = tested on: BRAF_V600E
# BTK = BTK (UniProt Q06187)
# CAMK2A = CAMK2A (UniProt Q9UQM7)
# CAMK2G = CAMK2G (UniProt Q13555)
# CDK10 = CDK10 (UniProt Q15131)
# CDK2 = CDK2 (UniProt P24941)
# CDK3 = CDK3 (UniProt Q00526)
# CDK4 = CDK4 (UniProt P11802)
# CDK5 = CDK5 (UniProt Q00535)
# CDK6 = CDK6 (UniProt Q00534)
Structure (SMILES),kinase-Nluc reporter destabilization hit call (ABL1),kinase-Nluc reporter destabilization hit call (AKT1),kinase-Nluc reporter destabilization hit call (ALK),kinase-Nluc reporter destabilization hit call (ARAF),kinase-Nluc reporter destabilization hit call (AURKA),kinase-Nluc reporter destabilization hit call (AURKB),kinase-Nluc reporter destabilization hit call (AURKC),kinase-Nluc reporter destabilization hit call (BLK),kinase-Nluc reporter destabilization hit call (BMX),kinase-Nluc reporter destabilization hit call (BRAF),kinase-Nluc reporter destabilization hit call (BRAF_V600E),kinase-Nluc reporter destabilization hit call (BTK),kinase-Nluc reporter destabilization hit call (CAMK2A),kinase-Nluc reporter destabilization hit call (CAMK2G),kinase-Nluc reporter destabilization hit call (CDK10),kinase-Nluc reporter destabilization hit call (CDK2),kinase-Nluc reporter destabilization hit call (CDK3),kinase-Nluc reporter destabilization hit call (CDK4),kinase-Nluc reporter destabilization hit call (CDK5),kinase-Nluc reporter destabilization hit call (CDK6)
Cc1cc(Nc2cc(CN3CCOCC3)c3nc(C)c(Cc4ccc(Cl)cc4F)n3n2)n[nH]1 [Gandotinib] (2.5 µM),inactive: 0,inactive: 0,inactive: 0,inactive: 0,inactive: 0,inactive: 0,inactive: 0,inactive: 0,inactive: 0,inactive: 0,inactive: 0,inactive: 0,inactive: 0,inactive: 0,inactive: 0,inactive: 0,inactive: 0,inactive: 0,inactive: 0,inactive: 0
C[C@H]1Cc2ccccc2N1C(=O)Cc1nc(N2CCOCC2)cc(=O)[nH]1 (2.5 µM),inactive: 0,inactive: 0,inactive: 0,inactive: 0,inactive: 0,inactive: 0,inactive: 0,inactive: 0,inactive: 0,inactive: 0,inactive: 0,inactive: 0,inactive: 0,inactive: 0,inactive: 0,inactive: 0,inactive: 0,inactive: 0,inactive: 0,inactive: 0
O=C(O)c1ccc(N2N=C(Cc3ccccc3)C(=Cc3ccc(-c4ccccc4F)o3)C2=O)cc1 (10 µM),inactive: 0,inactive: 0,inactive: 0,inactive: 0,inactive: 0,inactive: 0,inactive: 0,inactive: 0,inactive: 0,inactive: 0,inactive: 0,inactive: 0,inactive: 0,inactive: 0,inactive: 0,inactive: 0,inactive: 0,inactive: 0,inactive: 0,inactive: 0
COc1cnccc1Nc1nc(-c2nn(Cc3c(F)cc(OCCO)cc3F)c3ccccc23)ncc1OC (10 µM),inactive: 0,inactive: 0,inactive: 0,inactive: 0,inactive: 0,inactive: 0,inactive: 0,inactive: 0,inactive: 0,inactive: 0,inactive: 0,inactive: 0,inactive: 0,inactive: 0,inactive: 0,inactive: 0,inactive: 0,inactive: 0,inactive: 0,inactive: 0
COc1ccc2c(c1OC)OC1c3ccc(O)cc3OCC21 (stereo not given) [Methylnissolin] (10 µM),inactive: 0,inactive: 0,inactive: 0,inactive: 0,inactive: 0,inactive: 0,inactive: 0,inactive: 0,inactive: 0,inactive: 0,inactive: 0,inactive: 0,inactive: 0,inactive: 0,inactive: 0,inactive: 0,inactive: 0,inactive: 0,inactive: 0,inactive: 0
C[C@@H]1C[C@H]2O[C@@]3(O[C@@H]2C(C)(C)O)[C@H](O)[C@@]2(C)[C@@H]4CC[C@H]5C(C)(C)[C@@H](O[C@@H]6OC[C@H](O)[C@H](O)[C@H]6O)CC[C@@]56C[C@@]46CC[C@]2(C)[C@@H]13 [Cimiracemoside C] (10 µM),inactive: 0,inactive: 0,inactive: 0,inactive: 0,inactive: 0,inactive: 0,inactive: 0,inactive: 0,inactive: 0,inactive: 0,inactive: 0,inactive: 0,inactive: 0,inactive: 0,inactive: 0,inactive: 0,inactive: 0,inactive: 0,inactive: 0,inactive: 0
CC(C)N(C)c1nc2cc(C(=O)O)ccc2nc1-c1ccc(F)cc1 (10 µM),inactive: 0,inactive: 0,inactive: 0,inactive: 0,inactive: 0,inactive: 0,inactive: 0,inactive: 0,inactive: 0,inactive: 0,inactive: 0,inactive: 0,inactive: 0,inactive: 0,inactive: 0,inactive: 0,inactive: 0,inactive: 0,inactive: 0,inactive: 0
CC(=O)Nc1nc2ccc(-c3cnc(C)c(NC(=O)OC4CCCCC4)c3)cc2s1 (10 µM),inactive: 0,inactive: 0,inactive: 0,inactive: 0,inactive: 0,inactive: 0,inactive: 0,inactive: 0,inactive: 0,inactive: 0,inactive: 0,inactive: 0,inactive: 0,inactive: 0,inactive: 0,inactive: 0,inactive: 0,inactive: 0,inactive: 0,inactive: 0
CC(C)n1cnc2c(Nc3cccc(Cl)c3)nc(NCCO)nc21 (10 µM),inactive: 0,inactive: 0,inactive: 0,inactive: 0,inactive: 0,inactive: 0,inactive: 0,inactive: 0,inactive: 0,inactive: 0,inactive: 0,inactive: 0,inactive: 0,inactive: 0,inactive: 0,inactive: 0,inactive: 0,inactive: 0,inactive: 0,inactive: 0
CC(C)c1ccc(CC(=O)N2CCN(c3ccc(C#N)nn3)CC2)cc1 (10 µM),inactive: 0,inactive: 0,inactive: 0,inactive: 0,inactive: 0,inactive: 0,inactive: 0,inactive: 0,inactive: 0,inactive: 0,inactive: 0,inactive: 0,inactive: 0,inactive: 0,inactive: 0,inactive: 0,inactive: 0,inactive: 0,inactive: 0,inactive: 0
COc1cc(N2CCC(N(C)C)CC2)ccc1Nc1ncc(Cl)c(Nc2ccccc2P(C)(C)=O)n1 (2.5 µM),inactive: 0,inactive: 0,inactive: 0,inactive: 0,inactive: 0,inactive: 0,inactive: 0,inactive: 0,inactive: 0,inactive: 0,inactive: 0,inactive: 0,inactive: 0,inactive: 0,inactive: 0,inactive: 0,inactive: 0,inactive: 0,inactive: 0,inactive: 0
CC(C)(C)c1cc(C(c2cc3c(cc2O)OCO3)N2CCOCC2)cc(C(C)(C)C)c1O (stereo not given) (2.5 µM),inactive: 0,inactive: 0,inactive: 0,inactive: 0,inactive: 0,inactive: 0,inactive: 0,inactive: 0,inactive: 0,inactive: 0,inactive: 0,inactive: 0,inactive: 0,inactive: 0,inactive: 0,inactive: 0,inactive: 0,inactive: 0,inactive: 0,inactive: 0
O=C1NC(=O)C(c2cnc3ccccn23)=C1c1cn2c3c(cc(F)cc13)CN(C(=O)N1CCCCC1)CC2 (2.5 µM),inactive: 0,inactive: 0,inactive: 0,inactive: 0,inactive: 0,inactive: 0,inactive: 0,inactive: 0,active: 1,inactive: 0,inactive: 0,inactive: 0,inactive: 0,inactive: 0,inactive: 0,inactive: 0,inactive: 0,inactive: 0,inactive: 0,inactive: 0
COc1ccc(-n2c(C)c([N+](=O)[O-])c3ccc(O)cc32)cc1 (10 µM),inactive: 0,inactive: 0,inactive: 0,inactive: 0,inactive: 0,inactive: 0,inactive: 0,inactive: 0,inactive: 0,inactive: 0,inactive: 0,inactive: 0,inactive: 0,inactive: 0,inactive: 0,inactive: 0,inactive: 0,inactive: 0,inactive: 0,inactive: 0
C=C[C@H]1[C@H](O[C@@H]2O[C@H](CO)[C@@H](O)[C@H](O)[C@H]2OC(=O)c2c(O)cc(O)cc2-c2cccc(O)c2)OC=C2C(=O)OCC[C@H]21 [Amarogentin] (10 µM),inactive: 0,inactive: 0,inactive: 0,inactive: 0,inactive: 0,inactive: 0,inactive: 0,inactive: 0,inactive: 0,inactive: 0,inactive: 0,inactive: 0,inactive: 0,inactive: 0,inactive: 0,inactive: 0,inactive: 0,inactive: 0,inactive: 0,inactive: 0
CCc1c(C)sc(NC(=S)NC(=O)c2ccc(Cl)cc2)c1C(N)=O (10 µM),inactive: 0,inactive: 0,inactive: 0,inactive: 0,inactive: 0,inactive: 0,inactive: 0,inactive: 0,inactive: 0,inactive: 0,inactive: 0,inactive: 0,inactive: 0,inactive: 0,inactive: 0,inactive: 0,inactive: 0,inactive: 0,inactive: 0,inactive: 0

# Given as tab-separated lines: entries from further up
Structure (SMILES)	kinase-Nluc reporter destabilization hit call (ABL1)	kinase-Nluc reporter destabilization hit call (AKT1)	kinase-Nluc reporter destabilization hit call (ALK)	kinase-Nluc reporter destabilization hit call (ARAF)	kinase-Nluc reporter destabilization hit call (AURKA)	kinase-Nluc reporter destabilization hit call (AURKB)	kinase-Nluc reporter destabilization hit call (AURKC)	kinase-Nluc reporter destabilization hit call (BLK)	kinase-Nluc reporter destabilization hit call (BMX)	kinase-Nluc reporter destabilization hit call (BRAF)	kinase-Nluc reporter destabilization hit call (BRAF_V600E)	kinase-Nluc reporter destabilization hit call (BTK)	kinase-Nluc reporter destabilization hit call (CAMK2A)	kinase-Nluc reporter destabilization hit call (CAMK2G)	kinase-Nluc reporter destabilization hit call (CDK10)	kinase-Nluc reporter destabilization hit call (CDK2)	kinase-Nluc reporter destabilization hit call (CDK3)	kinase-Nluc reporter destabilization hit call (CDK4)	kinase-Nluc reporter destabilization hit call (CDK5)	kinase-Nluc reporter destabilization hit call (CDK6)
C[C@H]1Cc2ccccc2N1C(=O)Cc1nc(N2CCOCC2)cc(=O)[nH]1 (2.5 µM)	inactive: 0	inactive: 0	inactive: 0	inactive: 0	inactive: 0	inactive: 0	inactive: 0	inactive: 0	inactive: 0	inactive: 0	inactive: 0	inactive: 0	inactive: 0	inactive: 0	inactive: 0	inactive: 0	inactive: 0	inactive: 0	inactive: 0	inactive: 0
O=C(O)c1ccc(N2N=C(Cc3ccccc3)C(=Cc3ccc(-c4ccccc4F)o3)C2=O)cc1 (10 µM)	inactive: 0	inactive: 0	inactive: 0	inactive: 0	inactive: 0	inactive: 0	inactive: 0	inactive: 0	inactive: 0	inactive: 0	inactive: 0	inactive: 0	inactive: 0	inactive: 0	inactive: 0	inactive: 0	inactive: 0	inactive: 0	inactive: 0	inactive: 0
